From publication PMC7066179
Results are given in words; binding and its absence hold for the method and conditions named. In cells and extracts the contact can be indirect. Binding calls can cover weak binding; strength is not graded here.

Molecular target: murine BR-FLAG expressed in mouse muscle by AAV9 (mouse)
Test: co-IP; mouse tissue mitochondria with AAV9-expressed BR-FLAG, solubilized with 1% digitonin (4 g/g) in IP buffer (150 mM NaCl, 1 mM EDTA, 50 mM HEPES-KOH pH 7.4); anti-FLAG M2 resin overnight, washes with 0.1% digitonin, elution with 3XFLAG peptide; immunoblot

B1: UQCRC1 (endogenous, mouse mitochondria) (protein, UniProt Q9CZ13 35-480)
chain: TATFAQALQSVPETQVSILDNGLRVASEQSSHATCTVGVWIDAGSRYETEKNNGAGYFLEHLAFKGTKNRPGNALEKEVESIGAHLNAYSTREHTAYLIKALSKDLPKVVELLADIVQNSSLEDSQIEKERDVILREMQENDASMQNVVFDYLHATAFQGTPLAQAVEGPSENVRRLSRTDLTDYLNRHYKAPRMVLAAAGGVEHQQLLDLAQKHLSSVSRVYEEDAVPGLTPCRFTGSEIRHRDDALPLAHVAIAVEGPGWANPDNVTLQVANAIIGHYDCTYGGGVHLSSPLASVAVANKLCQSFQTFNISYSDTGLLGAHFVCDAMSIDDMVFFLQGQWMRLCTSATESEVTRGKNILRNALVSHLDGTTPVCEDIGRSLLTYGRRIPLAEWESRIQEVDAQMLRDICSKYFYDQCPAVAGYGPIEQLPDYNRIRSGMFWLRF
- binding: binds
